# Laboratory results: ChEMBL document CHEMBL5674883, “The Heterochromatin Landscape in Migrating Cells and the Importance of H3K27me3 for Associated Transcriptome Alterations” (Cells, 2018)
# Protein sequences, listed by entry. Tags and fused reporters are not part of them.
# UniProt Q61188, whole entry: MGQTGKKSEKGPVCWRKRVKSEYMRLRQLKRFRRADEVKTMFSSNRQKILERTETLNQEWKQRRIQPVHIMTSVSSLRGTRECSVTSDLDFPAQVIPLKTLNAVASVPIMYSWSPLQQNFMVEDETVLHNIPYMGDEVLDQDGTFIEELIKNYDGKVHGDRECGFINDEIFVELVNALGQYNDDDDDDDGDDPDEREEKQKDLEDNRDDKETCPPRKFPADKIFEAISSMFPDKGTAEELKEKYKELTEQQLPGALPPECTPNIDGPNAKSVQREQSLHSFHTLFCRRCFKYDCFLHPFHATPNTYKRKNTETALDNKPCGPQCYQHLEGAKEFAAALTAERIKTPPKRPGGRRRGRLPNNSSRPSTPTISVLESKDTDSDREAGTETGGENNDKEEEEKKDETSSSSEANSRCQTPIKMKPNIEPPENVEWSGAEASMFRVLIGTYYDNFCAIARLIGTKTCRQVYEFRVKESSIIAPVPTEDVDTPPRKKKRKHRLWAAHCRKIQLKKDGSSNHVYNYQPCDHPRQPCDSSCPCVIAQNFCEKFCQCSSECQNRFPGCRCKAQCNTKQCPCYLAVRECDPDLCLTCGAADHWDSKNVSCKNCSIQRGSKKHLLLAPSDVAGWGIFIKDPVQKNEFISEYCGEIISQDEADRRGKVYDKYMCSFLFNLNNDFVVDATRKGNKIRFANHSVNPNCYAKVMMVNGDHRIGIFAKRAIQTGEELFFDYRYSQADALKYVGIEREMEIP
# Further values from the same series stand in other lists.
# Legend:
# Assay type in all cases: cell-based
# [1] = target: T1, RNA polymerase II (Mus musculus) (UniProt P08775+Q8CFI7+P97760+A0A3Q4L2S8+Q80UW8+P61219+P62488+Q923G2+P60898+O08740+Q63871+P62876); assay: Inhibition of RNA polymerase II in mouse B16-F1 migrating cells assessed as fold change in Supt16-RNA stability at 0.1 mM measured by ChIP-seq analysis relative to control cells
# [2] = target: T1, RNA polymerase II (Mus musculus); assay: Inhibition of RNA polymerase II in mouse B16-F1 migrating cells assessed as fold change in Dyrk3-RNA stability at 0.1 mM measured by ChIP-seq analysis relative to control cells
# [3] = target: T1, RNA polymerase II (Mus musculus); assay: Inhibition of RNA polymerase II in mouse B16-F1 migrating cells assessed as fold change in Pigyl-RNA stability at 0.1 mM measured by ChIP-seq analysis relative to control cells
# [4] = target: T1, RNA polymerase II (Mus musculus); assay: Inhibition of RNA polymerase II in mouse B16-F1 migrating cells assessed as fold change in Nol8-RNA stability at 0.1 mM measured by ChIP-seq analysis relative to control cells
# [5] = target: T1, RNA polymerase II (Mus musculus); assay: Inhibition of RNA polymerase II in mouse B16-F1 migrating cells assessed as fold change in Gpsm3-RNA stability at 0.1 mM measured by ChIP-seq analysis relative to control cells
# [6] = target: T1, RNA polymerase II (Mus musculus); assay: Inhibition of RNA polymerase II in mouse B16-F1 migrating cells assessed as fold change in Ube3a-RNA stability at 0.1 mM measured by ChIP-seq analysis relative to control cells
# [7] = target: T1, RNA polymerase II (Mus musculus); assay: Inhibition of RNA polymerase II in mouse B16-F1 migrating cells assessed as fold change in Cenpq-RNA stability at 0.1 mM measured by ChIP-seq analysis relative to control cells
# [8] = target: T1, RNA polymerase II (Mus musculus); assay: Inhibition of RNA polymerase II in mouse B16-F1 migrating cells assessed as fold change in Zfp748-RNA stability at 0.1 mM measured by ChIP-seq analysis relative to control cells
# [9] = target: T1, RNA polymerase II (Mus musculus); assay: Inhibition of RNA polymerase II in mouse B16-F1 migrating cells assessed as fold change in Usp15-RNA stability at 0.1 mM measured by ChIP-seq analysis relative to control cells
# [10] = target: T1, RNA polymerase II (Mus musculus); assay: Inhibition of RNA polymerase II in mouse B16-F1 migrating cells assessed as fold change in Haus6-RNA stability at 0.1 mM measured by ChIP-seq analysis relative to control cells
# [11] = target: T1, RNA polymerase II (Mus musculus); assay: Inhibition of RNA polymerase II in mouse B16-F1 migrating cells assessed as fold change in Fam57a-RNA stability at 0.1 mM measured by ChIP-seq analysis relative to control cells
# [12] = target: T1, RNA polymerase II (Mus musculus); assay: Inhibition of RNA polymerase II in mouse B16-F1 migrating cells assessed as fold change in Naa10-RNA stability at 0.1 mM measured by ChIP-seq analysis relative to control cells
# [13] = target: T1, RNA polymerase II (Mus musculus); assay: Inhibition of RNA polymerase II in mouse B16-F1 migrating cells assessed as fold change in Tcn2-RNA stability at 0.1 mM measured by ChIP-seq analysis relative to control cells
# [14] = target: T1, RNA polymerase II (Mus musculus); assay: Inhibition of RNA polymerase II in mouse B16-F1 migrating cells assessed as fold change in Mfsd14b-RNA stability at 0.1 mM measured by ChIP-seq analysis relative to control cells
# [15] = target: T1, RNA polymerase II (Mus musculus); assay: Inhibition of RNA polymerase II in mouse B16-F1 migrating cells assessed as fold change in Csgalnact2-RNA stability at 0.1 mM measured by ChIP-seq analysis relative to control cells
# [16] = target: T1, RNA polymerase II (Mus musculus); assay: Inhibition of RNA polymerase II in mouse B16-F1 migrating cells assessed as fold change in Ccar1-RNA stability at 0.1 mM measured by ChIP-seq analysis relative to control cells
# [17] = target: T1, RNA polymerase II (Mus musculus); assay: Inhibition of RNA polymerase II in mouse B16-F1 migrating cells assessed as fold change in Evi5-RNA stability at 0.1 mM measured by ChIP-seq analysis relative to control cells
# [18] = target: T1, RNA polymerase II (Mus musculus); assay: Inhibition of RNA polymerase II in mouse B16-F1 migrating cells assessed as fold change in Acsl3-RNA stability at 0.1 mM measured by ChIP-seq analysis relative to control cells
# [19] = target: T1, RNA polymerase II (Mus musculus); assay: Inhibition of RNA polymerase II in mouse B16-F1 migrating cells assessed as fold change in Hsp90b1-RNA stability at 0.1 mM measured by ChIP-seq analysis relative to control cells
# [20] = target: Histone-lysine N-methyltransferase EZH2 (Mus musculus) (UniProt Q61188); assay: Inhibition of EZH2 in mouse B16-F1 migrating cells assessed as fold change in H3K27me3-buffered regulated Mki67-mRNA expression at 3 uM measured by ChIP-seq analysis relative to control cells
# [21] = target: Histone-lysine N-methyltransferase EZH2 (Mus musculus) (UniProt Q61188); assay: Inhibition of EZH2 in mouse B16-F1 migrating cells assessed as fold change in H3K27me3-buffered regulated Cyp51-mRNA expression at 3 uM measured by ChIP-seq analysis relative to control cells
# [22] = target: Histone-lysine N-methyltransferase EZH2 (Mus musculus) (UniProt Q61188); assay: Inhibition of EZH2 in mouse B16-F1 migrating cells assessed as fold change in H3K27me3-buffered regulated Mboat2-mRNA expression at 3 uM measured by ChIP-seq analysis relative to control cells
# [23] = target: Histone-lysine N-methyltransferase EZH2 (Mus musculus) (UniProt Q61188); assay: Inhibition of EZH2 in mouse B16-F1 migrating cells assessed as fold change in H3K27me3-dependent regulated Gm16010-mRNA expression at 3 uM measured by ChIP-seq analysis relative to control cells
# [24] = target: Histone-lysine N-methyltransferase EZH2 (Mus musculus) (UniProt Q61188); assay: Inhibition of EZH2 in mouse B16-F1 migrating cells assessed as fold change in H3K27me3-buffered regulated Fignl2-mRNA expression at 3 uM measured by ChIP-seq analysis relative to control cells
# [25] = target: Histone-lysine N-methyltransferase EZH2 (Mus musculus) (UniProt Q61188); assay: Inhibition of EZH2 in mouse B16-F1 migrating cells assessed as fold change in H3K27me3-buffered regulated Ccdc14-mRNA expression at 3 uM measured by ChIP-seq analysis relative to control cells
# [26] = target: Histone-lysine N-methyltransferase EZH2 (Mus musculus) (UniProt Q61188); assay: Inhibition of EZH2 in mouse B16-F1 migrating cells assessed as fold change in H3K27me3-buffered regulated Mest-mRNA expression at 3 uM measured by ChIP-seq analysis relative to control cells
# [27] = target: Histone-lysine N-methyltransferase EZH2 (Mus musculus) (UniProt Q61188); assay: Inhibition of EZH2 in mouse B16-F1 migrating cells assessed as fold change in H3K27me3-independent regulated Tnfrsf12a-mRNA expression at 3 uM measured by ChIP-seq analysis relative to control cells
# [28] = target: Histone-lysine N-methyltransferase EZH2 (Mus musculus) (UniProt Q61188); assay: Inhibition of EZH2 in mouse B16-F1 migrating cells assessed as fold change in H3K27me3-independent regulated Pygl-mRNA expression at 3 uM measured by ChIP-seq analysis relative to control cells
# [29] = target: Histone-lysine N-methyltransferase EZH2 (Mus musculus) (UniProt Q61188); assay: Inhibition of EZH2 in mouse B16-F1 migrating cells assessed as fold change in H3K27me3-buffered regulated Zfas1-mRNA expression at 3 uM measured by ChIP-seq analysis relative to control cells
# [30] = target: Histone-lysine N-methyltransferase EZH2 (Mus musculus) (UniProt Q61188); assay: Inhibition of EZH2 in mouse B16-F1 migrating cells assessed as fold change in H3K27me3-buffered regulated Jmjd1c-mRNA expression at 3 uM measured by ChIP-seq analysis relative to control cells
smiles,measurement,setting,value
OC[C@H]1O[C@@H](n2cnc3cc(Cl)c(Cl)cc32)[C@H](O)[C@@H]1O,log2FC,[1],-0.74
same,log2FC,[2],-1.09
same,log2FC,[3],0.62
same,log2FC,[4],-1.07
same,log2FC,[5],0.6
same,log2FC,[6],-0.86
same,log2FC,[7],-0.63
same,log2FC,[8],-0.85
same,log2FC,[9],-0.77
same,log2FC,[10],-0.58
same,log2FC,[11],0.45
same,log2FC,[12],0.44
same,log2FC,[13],0.4
same,log2FC,[14],-0.49
same,log2FC,[15],-0.68
same,log2FC,[16],-0.74
same,log2FC,[17],-0.48
same,log2FC,[18],-0.51
same,log2FC,[19],-0.62
CCCc1cc(C)[nH]c(=O)c1CNC(=O)c1cc(-c2ccnc(N3CCN(C)CC3)c2)cc2c1cnn2C(C)C,log2FC,[20],-0.39
same,log2FC,[21],0.48
same,log2FC,[22],0.39
same,log2FC,[23],0.29
same,log2FC,[24],-0.58
same,log2FC,[25],-0.43
same,log2FC,[26],-0.61
same,log2FC,[27],0.47
same,log2FC,[28],0.61
same,log2FC,[29],-0.62
same,log2FC,[30],-0.43
